{"sequences": {"note": "Protein sequences, listed by entry. Tags and fused reporters are not part of them. Lines headed by an entry give the natural chain unless they say otherwise; changes in a name come on top.", "UniProt F4JBZ1": "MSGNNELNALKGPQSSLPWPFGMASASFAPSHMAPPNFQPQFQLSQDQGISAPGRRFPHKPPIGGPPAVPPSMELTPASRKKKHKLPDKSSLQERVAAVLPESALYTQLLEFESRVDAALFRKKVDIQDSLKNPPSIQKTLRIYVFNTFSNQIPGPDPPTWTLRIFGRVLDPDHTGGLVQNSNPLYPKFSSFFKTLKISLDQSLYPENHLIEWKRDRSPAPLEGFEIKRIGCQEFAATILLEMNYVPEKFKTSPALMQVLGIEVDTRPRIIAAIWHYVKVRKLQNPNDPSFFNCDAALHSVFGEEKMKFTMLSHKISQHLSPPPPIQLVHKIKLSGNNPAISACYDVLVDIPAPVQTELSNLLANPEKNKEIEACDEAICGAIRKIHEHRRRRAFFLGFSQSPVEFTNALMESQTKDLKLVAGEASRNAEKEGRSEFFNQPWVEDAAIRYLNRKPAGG", "UniProt Q9FMT4": "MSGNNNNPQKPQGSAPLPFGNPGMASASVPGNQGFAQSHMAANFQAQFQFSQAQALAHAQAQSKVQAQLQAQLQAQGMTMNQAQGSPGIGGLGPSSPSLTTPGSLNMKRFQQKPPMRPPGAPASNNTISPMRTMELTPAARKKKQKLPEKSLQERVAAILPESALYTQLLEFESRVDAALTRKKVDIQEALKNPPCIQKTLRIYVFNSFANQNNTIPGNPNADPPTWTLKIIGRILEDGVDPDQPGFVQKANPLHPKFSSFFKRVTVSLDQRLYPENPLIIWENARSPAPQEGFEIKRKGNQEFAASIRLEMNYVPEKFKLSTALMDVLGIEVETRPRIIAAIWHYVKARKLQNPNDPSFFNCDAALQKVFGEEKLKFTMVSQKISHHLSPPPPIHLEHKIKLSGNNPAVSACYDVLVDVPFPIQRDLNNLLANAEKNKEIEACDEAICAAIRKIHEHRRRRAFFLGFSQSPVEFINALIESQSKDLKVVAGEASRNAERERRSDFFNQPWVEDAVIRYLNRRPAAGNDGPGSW", "UniProt Q6EVK6": "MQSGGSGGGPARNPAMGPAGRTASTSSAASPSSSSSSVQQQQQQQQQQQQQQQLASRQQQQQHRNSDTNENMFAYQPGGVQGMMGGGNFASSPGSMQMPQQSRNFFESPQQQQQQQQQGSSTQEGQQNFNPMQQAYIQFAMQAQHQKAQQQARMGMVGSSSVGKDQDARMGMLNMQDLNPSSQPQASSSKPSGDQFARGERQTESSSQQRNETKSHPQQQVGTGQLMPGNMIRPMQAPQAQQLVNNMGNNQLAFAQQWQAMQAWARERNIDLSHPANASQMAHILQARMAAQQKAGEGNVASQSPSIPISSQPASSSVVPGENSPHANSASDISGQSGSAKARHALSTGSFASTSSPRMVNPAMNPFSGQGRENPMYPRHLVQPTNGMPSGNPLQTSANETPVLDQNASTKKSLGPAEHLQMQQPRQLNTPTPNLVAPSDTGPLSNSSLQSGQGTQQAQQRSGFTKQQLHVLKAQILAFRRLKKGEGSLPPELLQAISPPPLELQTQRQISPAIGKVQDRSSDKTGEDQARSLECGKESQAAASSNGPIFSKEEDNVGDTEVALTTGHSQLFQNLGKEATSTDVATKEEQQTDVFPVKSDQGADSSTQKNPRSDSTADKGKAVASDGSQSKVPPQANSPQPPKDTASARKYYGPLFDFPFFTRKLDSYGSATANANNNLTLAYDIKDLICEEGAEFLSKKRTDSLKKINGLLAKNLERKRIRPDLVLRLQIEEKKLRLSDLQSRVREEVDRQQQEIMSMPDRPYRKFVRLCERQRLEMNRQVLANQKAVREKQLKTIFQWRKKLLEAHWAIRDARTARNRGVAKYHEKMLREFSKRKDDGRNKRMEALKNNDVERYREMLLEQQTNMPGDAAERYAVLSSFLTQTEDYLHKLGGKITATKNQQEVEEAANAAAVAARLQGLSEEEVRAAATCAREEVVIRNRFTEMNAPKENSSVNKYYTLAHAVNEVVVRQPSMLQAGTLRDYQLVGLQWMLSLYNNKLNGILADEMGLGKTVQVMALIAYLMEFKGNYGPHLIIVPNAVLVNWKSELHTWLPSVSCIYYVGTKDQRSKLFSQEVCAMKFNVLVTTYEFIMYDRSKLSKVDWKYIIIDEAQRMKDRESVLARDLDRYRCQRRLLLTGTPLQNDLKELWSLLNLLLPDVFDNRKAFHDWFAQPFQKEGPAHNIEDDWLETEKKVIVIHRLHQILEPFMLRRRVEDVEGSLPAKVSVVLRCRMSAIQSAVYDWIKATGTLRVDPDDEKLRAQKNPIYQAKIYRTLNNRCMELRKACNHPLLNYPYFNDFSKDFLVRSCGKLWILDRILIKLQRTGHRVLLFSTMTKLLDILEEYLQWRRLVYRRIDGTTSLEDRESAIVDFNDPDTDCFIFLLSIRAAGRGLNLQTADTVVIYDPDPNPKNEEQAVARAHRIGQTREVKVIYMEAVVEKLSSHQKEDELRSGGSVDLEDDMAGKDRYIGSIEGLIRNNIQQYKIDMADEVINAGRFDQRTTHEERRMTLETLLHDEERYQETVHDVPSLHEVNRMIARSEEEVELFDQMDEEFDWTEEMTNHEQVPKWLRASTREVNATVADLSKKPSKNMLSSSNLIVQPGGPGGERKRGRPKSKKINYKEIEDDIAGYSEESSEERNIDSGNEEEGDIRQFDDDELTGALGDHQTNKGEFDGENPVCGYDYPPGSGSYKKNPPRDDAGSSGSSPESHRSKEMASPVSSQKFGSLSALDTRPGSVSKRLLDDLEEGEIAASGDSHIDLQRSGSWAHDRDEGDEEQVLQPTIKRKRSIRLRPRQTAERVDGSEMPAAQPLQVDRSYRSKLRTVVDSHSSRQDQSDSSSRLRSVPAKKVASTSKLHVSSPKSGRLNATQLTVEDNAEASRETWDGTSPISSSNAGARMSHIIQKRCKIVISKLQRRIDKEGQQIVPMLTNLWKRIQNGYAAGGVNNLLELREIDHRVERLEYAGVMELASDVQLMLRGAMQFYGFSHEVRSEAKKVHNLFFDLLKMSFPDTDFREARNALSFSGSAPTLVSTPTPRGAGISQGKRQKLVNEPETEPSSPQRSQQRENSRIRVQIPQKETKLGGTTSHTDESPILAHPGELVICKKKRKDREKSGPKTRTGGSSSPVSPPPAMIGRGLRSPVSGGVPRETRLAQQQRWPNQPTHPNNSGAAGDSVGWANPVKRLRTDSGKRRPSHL"}, "source": "paper PMC12177292", "test_in_all_cases": "affinity purification with mass spectrometry; YFPHA-tagged bait captured on GFP-Trap magnetic beads from extracts of 20 g transgenic plants; IP buffer 50 mM Tris-HCl pH 7.6, 150 mM NaCl, 5 mM MgCl2, 10% glycerol, 0.25% TritonX-100, 1 mM DTT, with Viscolase; LC-MS/MS, label-free quantification", "key": {"[1]": {"molecular_target": "T1, BSH-YFPHA (Arabidopsis thaliana) (UniProt P93045)", "T1 sequence": "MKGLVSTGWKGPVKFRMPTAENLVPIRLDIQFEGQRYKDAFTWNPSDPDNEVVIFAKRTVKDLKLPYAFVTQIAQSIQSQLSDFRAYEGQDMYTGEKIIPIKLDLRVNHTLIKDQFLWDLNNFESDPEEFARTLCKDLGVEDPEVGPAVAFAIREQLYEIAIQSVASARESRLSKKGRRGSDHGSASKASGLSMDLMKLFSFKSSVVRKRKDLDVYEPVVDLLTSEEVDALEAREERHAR"}, "[2]": {"molecular_target": "SWP73A-YFPHA (Arabidopsis thaliana) (UniProt F4JBZ1)"}, "[3]": {"molecular_target": "T2, SWI3D-YFPHA (Arabidopsis thaliana) (UniProt Q8VY05)", "T2 sequence": "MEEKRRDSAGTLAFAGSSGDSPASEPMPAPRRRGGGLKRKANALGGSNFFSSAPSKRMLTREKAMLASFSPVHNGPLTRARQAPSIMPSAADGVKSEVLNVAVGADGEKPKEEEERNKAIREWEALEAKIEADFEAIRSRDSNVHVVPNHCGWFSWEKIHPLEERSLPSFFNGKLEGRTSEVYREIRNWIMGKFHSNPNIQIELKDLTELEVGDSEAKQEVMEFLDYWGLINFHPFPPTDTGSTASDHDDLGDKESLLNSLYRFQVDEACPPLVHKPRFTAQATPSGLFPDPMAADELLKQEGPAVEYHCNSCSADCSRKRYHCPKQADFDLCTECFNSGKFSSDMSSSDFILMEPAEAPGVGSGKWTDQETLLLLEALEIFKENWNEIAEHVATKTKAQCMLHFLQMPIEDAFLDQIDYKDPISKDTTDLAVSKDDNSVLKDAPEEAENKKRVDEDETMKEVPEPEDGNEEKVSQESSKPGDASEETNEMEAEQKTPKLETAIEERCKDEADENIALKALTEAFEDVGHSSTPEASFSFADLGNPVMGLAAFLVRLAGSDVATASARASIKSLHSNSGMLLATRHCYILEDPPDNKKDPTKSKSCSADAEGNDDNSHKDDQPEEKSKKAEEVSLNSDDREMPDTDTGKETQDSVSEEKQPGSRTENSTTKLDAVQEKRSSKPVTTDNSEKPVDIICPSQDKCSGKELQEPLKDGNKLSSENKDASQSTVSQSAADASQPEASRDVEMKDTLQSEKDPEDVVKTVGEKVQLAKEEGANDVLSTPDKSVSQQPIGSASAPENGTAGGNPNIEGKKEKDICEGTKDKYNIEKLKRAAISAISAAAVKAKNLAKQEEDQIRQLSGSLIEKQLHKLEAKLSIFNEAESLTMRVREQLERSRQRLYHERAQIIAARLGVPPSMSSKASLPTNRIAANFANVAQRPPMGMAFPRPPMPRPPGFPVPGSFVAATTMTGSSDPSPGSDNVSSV"}, "[4]": {"molecular_target": "SWP73B-YFPHA (Arabidopsis thaliana) (UniProt Q9FMT4)"}}, "note": "These are yes or no findings as the source states them, for the method shown. Binding seen in cells or lysates may run through a third protein. Here binding means that the protein was enriched with, or labelled near, the bait; the list need not be complete.", "data": [{"substance": "SWP73B (endogenous) (from UniProt Q9FMT4)", "values": [{"measurement": "binding", "setting": "[1]", "result": "binds"}, {"measurement": "binding", "setting": "[2]", "result": "binds"}, {"measurement": "binding", "setting": "[3]", "result": "binds"}]}, {"substance": "BRM (from UniProt Q6EVK6 1-2193)", "values": [{"measurement": "binding", "setting": "[2]", "result": "binds"}, {"measurement": "binding", "setting": "[4]", "result": "binds"}]}, {"substance": "SYD (from UniProt F4IHS2 1-3574)", "values": [{"measurement": "binding", "setting": "[4]", "result": "binds"}, {"measurement": "binding", "setting": "[3]", "result": "binds"}]}]}
